Experimental data taken from the supplement of paper PMC12823440, “Inhibitors supercharge kinase turnover through native proteolytic circuits” (Nature, 2025).
Structures can show the parent of a compound that is named as a salt. This is one part of the list. Hit calls seldom repeat between salt and free forms of one compound.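 Kinases, fused to nanoluciferase, were expressed in K562 cells; luminescence was measured every 4 h from 2 to 18 h as percent of control (DMSO = 100%, positive control = 0%). A time point is decreased if signal falls significantly (2 sigma). Hits were called by the authors by a rule that is not shown; the count of time points alone does not decide it.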

Target: SRC (UniProt P12931)
Test: number of time points (of 5) at which kinase-Nluc abundance scored as decreased, DMSO-normalised (count); higher = more persistent destabilization
Details: K562; 2-18 h

Structure (SMILES)	number of time points
CC(C)n1ncnc1-c1cn2c(n1)-c1ccc(O[C@@H](C)C(N)=O)cc1OCC2 (10 µM)	0
O=C(c1cccc(Cl)c1F)N1CCN(Cc2cccc(Nc3nccs3)n2)CC1 (2.5 µM)	0
COc1cc(F)ccc1-c1ncnc(Nc2cccc(C[S@](C)(=N)=O)c2)n1 [Atuveciclib] (2.5 µM)	0
Cc1cnc(NC(=O)c2cc(Oc3cnc(C(=O)N(C)C)nc3)c3cc(C)oc3c2)cn1 (10 µM)	0
CC1=C(C(=O)Nc2cc3cn[nH]c3cc2F)C(c2ccc(C(F)(F)F)cc2)CC(=O)N1 (stereo not drawn) (10 µM)	0
NCC1CCC(CNc2nc(NCc3ccccc3OC(F)(F)F)ncc2[N+](=O)[O-])CC1 (stereo not drawn) [PKC-theta inhibitor] (10 µM)	0
O=C1Nc2ccc(I)cc2/C1=C/c1cc(Br)c(O)c(Br)c1 (10 µM)	0
COc1cc(-c2oc3cc(O)cc(O)c3c(=O)c2O)ccc1O [Isorhamnetin] (10 µM)	0
O=C1OC(/C=C/c2ccccc2)=NC/1=C\c1cccnc1 (10 µM)	0
Cn1ncc(NC(=O)c2nc(-c3c(F)cccc3F)sc2N)c1N1CC[C@@H](N)[C@H](F)CC1 (10 µM)	0
CNC(=O)CNc1cnc2ccc(-c3ccc(OC)c(OC)c3)cc2n1 (10 µM)	0
CO[C@H]1C[C@@H]2CC[C@@H](C)[C@@](O)(O2)C(=O)C(=O)N2CCCC[C@H]2C(=O)O[C@H]([C@H](C)C[C@@H]2CC[C@@H](OCCO)[C@H](OC)C2)CC(=O)[C@H](C)/C=C(\C)[C@@H](O)[C@@H](OC)C(=O)[C@H](C)C[C@H](C)/C=C/C=C/C=C/1C [Everolimus] (10 µM)	0
O=C(Nc1cccnc1)c1cc(-c2ccnc(F)c2)ccc1OCc1ccccc1 (10 µM)	0
COc1c(O)cc2oc(-c3ccc(O)cc3)cc(=O)c2c1O [Hispidulin] (10 µM)	0
O=C1CC[C@H](NC(=O)Cc2ccccc2)C(=O)N1 [Antineoplaston A10] (10 µM)	0
CC(C)Oc1ccc(F)c(-c2cnc(N)c(C(=O)Nc3cnccc3N3CCC[C@@H](C(=O)O)C3)n2)c1 (2 µM)	0
Nc1nc2c(nc(Br)n2[C@@H]2O[C@@H]3COP(=O)(O)O[C@H]3[C@H]2O)c(=O)[nH]1 [8-Bromo-cGMP (sodium)] (10 µM)	0
Cc1cc(-n2c(=O)ccc3c[nH]c4nccc-4c32)ccc1F (10 µM)	0
CO[C@H]1CC[C@H](N2C(=O)CNc3ncc(-c4ccc(C(C)(C)O)nc4)nc32)CC1 (2.5 µM)	0

Ordered by length of the SMILES (falling): three of the compounds above.
Structure (SMILES)	number of time points
CO[C@H]1CC[C@H](N2C(=O)CNc3ncc(-c4ccc(C(C)(C)O)nc4)nc32)CC1 (2.5 µM)	0
O=C(Nc1cccnc1)c1cc(-c2ccnc(F)c2)ccc1OCc1ccccc1 (10 µM)	0
CNC(=O)CNc1cnc2ccc(-c3ccc(OC)c(OC)c3)cc2n1 (10 µM)	0

(next part)

Structure (SMILES)	number of time points
COc1cc2c(cc1OC)/C(=C/c1ccc(O)cc1)C(=O)N2 (10 µM)	0
NCCOc1ccc(Cl)cc1C(=O)Nc1ccc([N+](=O)[O-])cc1Cl [HJC0152 hydrochloride] (2 µM)	0
CCN(CC)CCOc1ccc(Nc2nc(-c3ccccc3NC(=O)CCN3CCN(C)CC3)nc3ccccc23)cc1 (2.5 µM)	0
C=CC(=O)N1CCN(C(=O)CNc2cc(I)c(Cl)cc2O)CC1 [K-Ras(G12C) inhibitor 12] (10 µM)	0
N[C@@H]1CCCN(c2c(/C=C3\SC(=O)NC3=O)cccc2-c2ccccc2)C1 (10 µM)	0
O=C(Nc1cc(Cl)cc2c1[nH]c1cnccc12)c1cccnc1 (10 µM)	0
C=C1C(=O)[C@@]23[C@H](O)C[C@@H]4C(C)(C)C(=O)CC[C@@]4(C)[C@@H]2CC[C@@H]1[C@H]3O [Glaucocalyxin A] (2.5 µM)	0
C[C@@H]1O[C@@H](Oc2cc(O)c3c(=O)c(O[C@@H]4O[C@@H](C)[C@H](O)[C@@H](O)[C@H]4O)c(-c4ccc(O)cc4)oc3c2)[C@H](O)[C@H](O)[C@H]1O [Kaempferitrin] (10 µM)	0
Cc1c(C(=O)Nc2ccc(Oc3ccnc4[nH]cc(-c5ccccc5)c34)c(F)c2)c(=O)n(-c2ccc(F)cc2)n1C (10 µM)	0
c1nc2c(NC3CCCCC3)nc(Nc3ccc(N4CCOCC4)cc3)nc2[nH]1 [Reversine] (10 µM)	0
CN1CCN(c2ccc(Nc3ncc4cc(C#N)c(=O)n(C5CCCC5)c4n3)cc2)CC1 (10 µM)	0
NC[C@@](O)(c1ccc(Cl)cc1)c1ccc(-c2cn[nH]c2)cc1 (10 µM)	0
Cc1ccc(-n2nc(C(C)(C)C)cc2NC(=O)Nc2ccc(OCCN3CCOCC3)cc2)cc1 (10 µM)	0
c1ccc(Cn2c(-c3ccc(OC[C@H](C4CCNCC4)n4c(-c5ccccc5)nc5ccccc54)cc3)nc3ccccc32)cc1 [Deltarasin] (2.5 µM)	0
C=CC(=O)N1CC[C@@H](Oc2nc(Nc3ccc(N4CCC(N5CCN(C)CC5)CC4)cc3)c(C(N)=O)nc2CC)C1 [Naquotinib (mesylate)] (2.5 µM)	0
Cc1cc(O)c2c(c1)C(=O)c1cccc(O)c1C2=O [Chrysophanol] (2 µM)	0
Cc1cc(C(=O)NC(C)(C)C)cc(C#Cc2ccc3c4c(oc3c2)C(C)(C)c2cc(NS(C)(=O)=O)ccc2C4=O)n1 (10 µM)	0
Nc1nc(NCCNc2ncc(-n3ccnc3)c(-c3ccc(Cl)cc3Cl)n2)ccc1[N+](=O)[O-] (2.5 µM)	0
Cn1c(CNc2cccc(C(=O)NCc3ccccc3C(F)(F)F)c2)nnc1-c1ccncc1 (10 µM)	0
